# Some entries share one result that the patent states for a list of compounds. For at least one compound, name, drawing or mass did not settle the structure.
# Tested on: R357 strains
# Assay: mouse sepsis model caused by R357 infection, survival rate
# Format: in vivo
# Details: C57BL/6 mouse, R357 i.p.
# Procedure: Specifically, 5×10^7 of R357 strains were intraperitoneally injected into 6 week old C57BL/6 mouses to prepare a sepsis mouse model caused by R357 infection, and PMB at a dose of 100 μg/kg and PA108 at a dose of 60 μg/kg were intraperitoneally injected alone or in combination to measure the survival rate of the mouse.
Compound,"time within which all mice died, PMB single treatment (PMB 100 μg/kg intraperitoneally) [h]","time within which all mice died, PA108 single treatment (PA108 60 μg/kg intraperitoneally) [h]"
"polymyxin B [PMB, reference compound]",≤ 42,–
Cc1cc([N+](=O)[O-])cc(-c2ccc(Cl)cc2)c1O [PA108],–,≤ 42

# — patent US12599575B2, “Antimicrobial adjuvant containing biphenyl derivative compound as active ingredient, and uses thereof” (KOREA RESEARCH INSTITUTE OF BIOSCIENCE AND BIOTECHNOLOGY, priority 2021, dated 2026)
